These are yes or no findings as the source states them, for the method shown. Binding seen in cells or lysates may run through a third protein. Some entries that bind do so weakly or less than the wild type.
Target: chicken integrin β1 chain (chicken) (UniProt P07228)
Assay: coimmunoprecipitation with Y9A2 from detergent lysate of the human α9-expressing chicken cell line

Sequences of proteins named here, by UniProt entry; tags and fusion partners are left off. Residues count along the entry.
UniProt P07228, residues 25-803: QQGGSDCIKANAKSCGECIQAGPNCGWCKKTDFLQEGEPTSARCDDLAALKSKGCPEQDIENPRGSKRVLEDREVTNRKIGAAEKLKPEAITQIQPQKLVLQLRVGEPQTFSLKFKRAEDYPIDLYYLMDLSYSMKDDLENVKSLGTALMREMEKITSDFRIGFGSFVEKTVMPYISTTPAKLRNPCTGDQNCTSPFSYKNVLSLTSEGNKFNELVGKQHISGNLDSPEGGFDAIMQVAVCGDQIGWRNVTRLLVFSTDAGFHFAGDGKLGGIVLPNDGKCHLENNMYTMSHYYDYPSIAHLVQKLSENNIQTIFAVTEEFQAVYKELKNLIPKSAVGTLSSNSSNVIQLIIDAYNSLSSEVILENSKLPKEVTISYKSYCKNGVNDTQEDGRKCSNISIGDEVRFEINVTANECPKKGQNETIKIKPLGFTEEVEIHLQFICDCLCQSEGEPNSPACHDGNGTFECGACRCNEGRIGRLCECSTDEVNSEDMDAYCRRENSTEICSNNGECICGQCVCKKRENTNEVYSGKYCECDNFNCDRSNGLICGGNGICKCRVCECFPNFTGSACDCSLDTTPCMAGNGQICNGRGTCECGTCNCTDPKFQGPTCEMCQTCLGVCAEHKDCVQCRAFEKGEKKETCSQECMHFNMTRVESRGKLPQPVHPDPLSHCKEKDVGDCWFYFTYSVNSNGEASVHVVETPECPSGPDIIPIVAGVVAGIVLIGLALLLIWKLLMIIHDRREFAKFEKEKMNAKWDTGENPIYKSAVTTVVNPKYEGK

B1: human integrin α9 chain (expressed in a chicken cell line) (receptor, UniProt Q13797 30-1035, looked up)
chain: YNLDPQRPVHFQGPADSFFGYAVLEHFHDNTRWVLVGAPKADSKYSPSVKSPGAVFKCRVHTNPDRRCTELDMARGKNRGTSCGKTCREDRDDEWMGVSLARQPKADGRVLACAHRWKNIYYEADHILPHGFCYIIPSNLQAKGRTLIPCYEEYKKKYGEEHGSCQAGIAGFFTEELVVMGAPGSFYWAGTIKVLNLTDNTYLKLNDEVIMNRRYTYLGYAVTAGHFSHPSTIDVVGGAPQDKGIGKVYIFRADRRSGTLIKIFQASGKKMGSYFGSSLCAVDLNGDGLSDLLVGAPMFSEIRDEGQVTVYINRGNGALEEQLALTGDGAYNAHFGESIASLDDLDNDGFPDVAIGAPKEDDFAGAVYIYHGDAGGIVPQYSMKLSGQKINPVLRMFGQSISGGIDMDGNGYPDVTVGAFMSDSVVLLRARPVITVDVSIFLPGSINITAPQCHDGQQPVNCLNVTTCFSFHGKHVPGEIGLNYVLMADVAKKEKGQMPRVYFVLLGETMGQVTEKLQLTYMEETCRHYVAHVKRRVQDVISPIVFEAAYSLSEHVTGEEERELPPLTPVLRWKKGQKIAQKNQTVFERNCRSEDCAADLQLQGKLLLSSMDEKTLYLALGAVKNISLNISISNLGDDAYDANVSFNVSRELFFINMWQKEEMGISCELLESDFLKCSVGFPFMRSKSKYEFSVIFDTSHLSGEEEVLSFIVTAQSGNTERSESLHDNTLVLMVPLMHEVDTSITGIMSPTSFVYGESVDAANFIQLDDLECHFQPINITLQVYNTGPSTLPGSSVSISFPNRLSSGGAEMFHVQEMVVGQEKGNCSFQKNPTPCIIPQEQENIFHTIFAFFTKSGRKVLDCEKPGISCLTAHCNFSALAKEESRTIDIYMLLNTEILKKDSSSVIQFMSRAKVKVDPALRVVEIAHGNPEEVTVVFEALHNLEPRGYVVGWIIAISLLVGILIFLLLAVLLWKMGFFRRRYKEIIEAEKNRKENEDSWDWVQKNQ
- binding: binds
